Test results published in patent US20120046317A1, “NOVEL HETEROCYCLIC COMPOUNDS” (priority 2009, published 2012).
At least one compound was matched to its structure with a doubt left.

System: AGE-LDL formation (Low density lipoprotein incubated with CuCl2)
Assay: In vitro inhibition of AGE-LDL formation: LDL incubated with CuCl2, MDA-lysine adduct fluorescence
Type: biochemical
Settings: Conc. 250 uM; LDL with CuCl2 at 37° C.
Protocol: In vitro Inhibition of AGE-LDL Formation:
Low density lipoprotein (LDL) was incubated with CuCl2 at 37° C. in phosphate buffered saline in the presence and absence of the following compounds. […] Results were expressed as % MDA-lysine adducts accumulation, considering the extent of the same formed upon incubation with CuCl2 alone as 100%.

O=C(NCCO)C1=CN(CC(=O)c2ccc(Br)cc2)C=CC1 [compound 148, 1-[2-(4-bromophenyl)-2-oxoethyl]-N-(2-hydroxyethyl)-1,4-dihydropyridine-3-carboxamide]
% Inhibition of AGE-LDL-formation: + (+ indicate 0-10%)

CS(=O)(=O)NNC(=O)C1=CN(CC(=O)c2cccs2)CCC1 [compound 187, N′-(methylsulfonyl)-1-[2-oxo-2-(thiophen-2-yl)ethyl]-1,4,5,6-tetrahydropyridine-3-carbohydrazide]
% Inhibition of AGE-LDL-formation: ++ (++ indicate 11-20%)
